Taken from: PubChem BioAssay AID1259254 (NCATS, 2017)
Here is one part, drawn at random, of about 59,000 deposited reagents. About 1,550 of them (2.6%) count as active. 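G2 share is only a proxy for re-replication; each gene was hit by three separate siRNAs, and active genes were retested.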 The numbers tell different reagents against one gene apart. Not all columns of the deposit are shown. The record does not give: the amount of reagent.

- Test: 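Finding genes that stop cells copying their DNA twice in one cycle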 (primary screen)
- Cells: human HCT116 colorectal cancer cells
- Reagent: single siRNA against human genes
- Timing: 3 days
- Measured: 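Imaged Hoechst DNA stain sorts each cell into a cycle phase by DNA amount; per plate, G2 fraction set to 0% for non-targeting and 100% for GMNN siRNA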
- Reading the numbers: G2 robust z-score: higher = more G2 cells, more excess DNA replication
- Active means: 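An siRNA counts as active if its G2 robust z-score lies at least 5 MADs above the screen median; here such calls match roughly 38% of GMNN control or more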

RPP38-DT #1 — G2 robust z-score = 0.955; call = inactive
RPP38-DT #2 — G2 robust z-score = 0.147; call = inactive
RPP38-DT #3 — G2 robust z-score = 0.728; call = inactive
IL17RE #1 — G2 robust z-score = -1.29; call = inactive
IL17RE #2 — G2 robust z-score = -0.0162; call = inactive
IL17RE #3 — G2 robust z-score = -0.725; call = inactive
SPMIP9 #1 — G2 robust z-score = -0.159; call = inactive
SPMIP9 #2 — G2 robust z-score = 0.168; call = inactive
SPMIP9 #3 — G2 robust z-score = 3.52; call = inactive
DHDH #1 — G2 robust z-score = 1.04; call = inactive
DHDH #2 — G2 robust z-score = -0.557; call = inactive
DHDH #3 — G2 robust z-score = 0.365; call = inactive
NXF2B #1 — G2 robust z-score = -0.463; call = inactive
NXF2B #2 — G2 robust z-score = -1.02; call = inactive
NXF2B #3 — G2 robust z-score = -0.205; call = inactive
WDSUB1 #1 — G2 robust z-score = -1.07; call = inactive
WDSUB1 #2 — G2 robust z-score = 3.51; call = inactive
WDSUB1 #3 — G2 robust z-score = -0.681; call = inactive

Targets listed so far whose target name starts with W or w:
WDSUB1 #1 — G2 robust z-score = -1.07; call = inactive
WDSUB1 #2 — G2 robust z-score = 3.51; call = inactive
WDSUB1 #3 — G2 robust z-score = -0.681; call = inactive

The list goes on:
ZNF408 #1 — G2 robust z-score = -0.423; call = inactive
ZNF408 #2 — G2 robust z-score = 0.23; call = inactive
ZNF408 #3 — G2 robust z-score = 0.0426; call = inactive
ANGPTL2 #1 — G2 robust z-score = -1.51; call = inactive
ANGPTL2 #2 — G2 robust z-score = -0.966; call = inactive
ANGPTL2 #3 — G2 robust z-score = -0.521; call = inactive
RPL23P7 #1 — G2 robust z-score = 2.85; call = inactive
RPL23P7 #2 — G2 robust z-score = 1.12; call = inactive
RPL23P7 #3 — G2 robust z-score = -0.0585; call = inactive
NLGN1 #1 — G2 robust z-score = -0.0868; call = inactive
NLGN1 #2 — G2 robust z-score = -0.458; call = inactive
NLGN1 #3 — G2 robust z-score = -0.541; call = inactive
